{"source": "PubChem BioAssay AID1259254, NCATS | 2017", "screen": "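Genome-wide screen for genes that prevent DNA re-replication in cancer cells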 (primary screen)", "cell system": "human HCT116 colorectal cancer cells", "knock-down reagent": "single siRNA against human genes", "time to read-out": "3 days", "detection": "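Nuclei stained with Hoechst and imaged; cell-cycle phase assigned by DNA content; G2 share scaled per plate, non-targeting siRNA 0%, GMNN siRNA 100%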", "reading the numbers": "G2 robust z-score: higher = more G2 cells, more excess DNA replication", "rule for the call": "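An siRNA counts as active if its G2 robust z-score lies at least 5 MADs above the screen median; here such calls match roughly 38% of GMNN control or more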", "note": "This is a random part of about 59,000 reagents tested. About 1,550 of them (2.6%) were called active. 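G2 share is only a proxy for re-replication; each gene was hit by three separate siRNAs, and active genes were retested.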 The numbers tell different reagents against one gene apart. Not all columns of the deposit are shown. The record does not give: the amount of reagent."}
{"gene": "GPAT3", "reagent": 1, "G2 robust z-score": -0.861, "Outcome": "inactive"}
{"gene": "GPAT3", "reagent": 2, "G2 robust z-score": 1.5, "Outcome": "inactive"}
{"gene": "GPAT3", "reagent": 3, "G2 robust z-score": 0.993, "Outcome": "inactive"}
{"gene": "KCNH1", "reagent": 1, "G2 robust z-score": 3.07, "Outcome": "inactive"}
{"gene": "KCNH1", "reagent": 2, "G2 robust z-score": -0.611, "Outcome": "inactive"}
{"gene": "KCNH1", "reagent": 3, "G2 robust z-score": 0.54, "Outcome": "inactive"}
{"gene": "OSMR", "reagent": 1, "G2 robust z-score": 0.436, "Outcome": "inactive"}
{"gene": "OSMR", "reagent": 2, "G2 robust z-score": 1.34, "Outcome": "inactive"}
{"gene": "OSMR", "reagent": 3, "G2 robust z-score": -0.438, "Outcome": "inactive"}
{"gene": "MCM6", "reagent": 1, "G2 robust z-score": -0.313, "Outcome": "inactive"}
{"gene": "MCM6", "reagent": 2, "G2 robust z-score": -0.829, "Outcome": "inactive"}
{"gene": "MCM6", "reagent": 3, "G2 robust z-score": -0.801, "Outcome": "inactive"}
{"gene": "DCUN1D3", "reagent": 1, "G2 robust z-score": -0.387, "Outcome": "inactive"}
{"gene": "DCUN1D3", "reagent": 2, "G2 robust z-score": 0.443, "Outcome": "inactive"}
{"gene": "DCUN1D3", "reagent": 3, "G2 robust z-score": -0.31, "Outcome": "inactive"}
{"gene": "BCL2", "reagent": 1, "G2 robust z-score": -0.898, "Outcome": "inactive"}
{"gene": "BCL2", "reagent": 2, "G2 robust z-score": 4.39, "Outcome": "inactive"}
{"gene": "BCL2", "reagent": 3, "G2 robust z-score": -0.475, "Outcome": "inactive"}
{"gene": "BLTP3B", "reagent": 1, "G2 robust z-score": -0.454, "Outcome": "inactive"}
{"gene": "BLTP3B", "reagent": 2, "G2 robust z-score": -0.539, "Outcome": "inactive"}
{"gene": "BLTP3B", "reagent": 3, "G2 robust z-score": 0.17, "Outcome": "inactive"}
{"gene": "MEX3D", "reagent": 1, "G2 robust z-score": -1.06, "Outcome": "inactive"}
{"gene": "MEX3D", "reagent": 2, "G2 robust z-score": 0.763, "Outcome": "inactive"}
{"gene": "MEX3D", "reagent": 3, "G2 robust z-score": 2.78, "Outcome": "inactive"}
{"gene": "BRPF1", "reagent": 1, "G2 robust z-score": -0.821, "Outcome": "inactive"}
{"gene": "BRPF1", "reagent": 2, "G2 robust z-score": 4.56, "Outcome": "inactive"}
{"gene": "BRPF1", "reagent": 3, "G2 robust z-score": 0.209, "Outcome": "inactive"}
{"gene": "ACKR2", "reagent": 1, "G2 robust z-score": -0.775, "Outcome": "inactive"}
{"gene": "ACKR2", "reagent": 2, "G2 robust z-score": -0.202, "Outcome": "inactive"}
{"gene": "ACKR2", "reagent": 3, "G2 robust z-score": -0.571, "Outcome": "inactive"}

Copied from above, 4 entries:
{"gene": "MEX3D", "reagent": 1, "G2 robust z-score": -1.06, "Outcome": "inactive"}
{"gene": "MEX3D", "reagent": 2, "G2 robust z-score": 0.763, "Outcome": "inactive"}
{"gene": "MEX3D", "reagent": 3, "G2 robust z-score": 2.78, "Outcome": "inactive"}
{"gene": "BRPF1", "reagent": 1, "G2 robust z-score": -0.821, "Outcome": "inactive"}
